Laboratory results as given in paper PMC10352136.
Results are given in words; binding and its absence hold for the method and conditions named.

Protein sequences, listed by entry. Tags and fused reporters are not part of them. Lines headed by an entry give the natural chain unless they say otherwise; changes in a name come on top.
UniProt Q13596: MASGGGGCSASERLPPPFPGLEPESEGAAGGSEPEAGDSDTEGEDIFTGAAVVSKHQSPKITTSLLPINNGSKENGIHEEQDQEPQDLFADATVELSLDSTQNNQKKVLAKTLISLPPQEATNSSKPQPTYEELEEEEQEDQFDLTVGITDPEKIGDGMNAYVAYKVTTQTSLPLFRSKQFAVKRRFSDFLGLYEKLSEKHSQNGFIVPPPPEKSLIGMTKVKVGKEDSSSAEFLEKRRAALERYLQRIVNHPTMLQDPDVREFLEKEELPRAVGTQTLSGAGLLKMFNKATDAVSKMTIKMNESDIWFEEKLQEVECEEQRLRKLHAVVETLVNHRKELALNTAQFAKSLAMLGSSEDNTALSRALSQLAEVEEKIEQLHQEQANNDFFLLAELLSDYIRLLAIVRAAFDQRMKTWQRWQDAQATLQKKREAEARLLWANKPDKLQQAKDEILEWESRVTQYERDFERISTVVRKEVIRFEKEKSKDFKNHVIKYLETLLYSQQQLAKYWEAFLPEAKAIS

Tests used:
[1] = target: SNX1 (2 mut)^† (F347A, W511A) (human) (UniProt Q13596); test: SEC-MALS; 100 μl of protein at 1 mg ml^−1 in 150 mM NaCl, 0.5 mM TCEP, 10 mM HEPES pH 7.5; Superdex 200 Increase 10/300 GL; both purified
[2] = target: T1, CI-MPR_(2347–2375) peptide (bipartite sorting motif of the cation-independent mannose-6-phosphate receptor tail) (UniProt P11717); test: condition: 746 µM SNX1^PX titrated into 16 µM peptide; ITC; 25 °C, 300 mM NaCl, 0.5 mM TCEP, 25 mM HEPES pH 7.5; CI-MPR in the syringe (SNX1^PX in the syringe for its test with the peptide); one-site model; both purified
T1 sequence (peptide): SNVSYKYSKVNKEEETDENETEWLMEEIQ

binding [1]	binding [2]	Substance
no binding (tested: 1 mg ml^−1)	–	SNX1 (2 mut)^† (F347A, W511A) (from UniProt Q13596 1-522)
–	no binding	SNX1^PX (PX domain of SNX1) (from UniProt Q13596 143-272) (domain or fragment)
